Assay results taken from US10525115B2 (Immatics Biotechnologies GmbH, priority 2014, dated 2020).

Test system: primary AML samples
Experiment: HLA class I ligandome analysis (W6/32 immunoaffinity purification, LC-MS/MS) of primary AML samples
Design: species or system human
Details: for Number of positive AMLs: HLA class I ligandome, AML patients (n=15), count for the HLA ligand (LiTAP) or, on protein lines, for the source protein (LiTAA); for Number of positive AMLs [rep. frequency]: representation frequency of the source protein (LiTAA) in AML patients (n=15)

Molecule | Number of positive AMLs | Number of positive AMLs [rep. frequency]
UCK2 (protein, UniProt Q9BZX2 2-261, looked up) Uridine-cytidine kinase 2: AGDSEQTLQNHQQPNGGEPFLIGVSGGTASGKSSVCAKIVQLLGQNEVDYRQKQVVILSQDSFYRVLTSEQKAKALKGQFNFDHPDAFDNELILKTLKEITEGKTVQIPVYDFVSHSRKEETVTVYPADVVLFEGILAFYSQEVRDLFQMKLFVDTDADTRLSRRVLRDISERGRDLEQILSQYITFVKPAFEEFCLPTKKYADVIIPRGADNLVAINLIVQHIQDILNGGPSKRQTNGCLNGYTPSRKRQASESSSRPH | 4 | [26.7%]
FAM46A (protein, UniProt Q96IP4 1-442, looked up) Terminal …: MAEGEGYFAMSEDELACSPYIPLGGDFGGGDFGGGDFGGGDFGGGGSFGGHCLDYCESPTAHCNVLNWEQVQRLDGILSETIPIHGRGNFPTLELQPSLIVKVVRRRLAEKRIGVRDVRLNGSAASHVLHQDSGLGYKDLDLIFCADLRGEGEFQTVKDVVLDCLLDFLPEGVNKEKITPLTLKEAYVQKMVKVCNDSDRWSLISLSNNSGKNVELKFVDSLRRQFEFSVDSFQIKLDSLLLFYECSENPMTETFHPTIIGESVYGDFQEAFDHLCNKIIATRNPEEIRGGGLLKYCNLLVRGFRPASDEIKTLQRYMCSRFFIDFSDIGEQQRKLESYLQNHFVGLEDRKYEYLMTLHGVVNESTVCLMGHERRQTLNLITMLAIRVLADQNVIPNVANVTCYYQPAPYVADANFSNYYIAQVQPVFTCQQQTYSTWLPCN | 4 | [26.7%]
GMNN (protein, UniProt O75496 1-209, looked up) Geminin: MNPSMKQKQEEIKENIKNSSVPRRTLKMIQPSASGSLVGRENELSAGLSKRKHRNDHLTSTTSSPGVIVPESSENKNLGGVTQESFDLMIKENPSSQYWKEVAEKRRKALYEALKENEKLHKEIEQKDNEIARLKKENKELAEVAEHVQYMAELIERLNGEPLDNFESLDNQEFDSEEETVEDSLVEDSEIGTCAEGTVSSSTDAKPCI | 6 | [40.0%]
NOC4L (protein, UniProt Q9BVI4 1-516, looked up) Nucleolar complex protein 4 …: MEREPGAAGVRRALGRRLEAVLASRSEANAVFDILAVLQSEDQEEIQEAVRTCSRLFGALLERGELFVGQLPSEEMVMTGSQGATRKYKVWMRHRYHSCCNRLGELLGHPSFQVKELALSALLKFVQLEGAHPLEKSKWEGNYLFPRELFKLVVGGLLSPEEDQSLLLSQFREYLDYDDTRYHTMQAAVDAVARVTGQHPEVPPAFWNNAFTLLSAVSLPRREPTVSSFYVKRAELWDTWKVAHLKEHRRVFQAMWLSFLKHKLPLSLYKKVLLIVHDAILPQLAQPTLMIDFLTRACDLGGALSLLALNGLFILIHKHNLEYPDFYRKLYGLLDPSVFHVKYRARFFHLADLFLSSSHLPAYLVAAFAKRLARLALTAPPEALLMVLPFICNLLRRHPACRVLVHRPHGPELDADPYDPGEEDPAQSRALESSLWELQALQRHYHPEVSKAASVINQALSMPEVSIAPLLELTAYEIFERDLKKKGPEPVPLEFIPAQGLLGRPGELCAQHFTLS | 4 | [26.7%]
THOC7 (protein, UniProt Q6I9Y2 2-204, looked up) THO complex subunit 7: GAVTDDEVIRKRLLIDGDGAGDDRRINLLVKSFIKWCNSGSQEEGYSQYQRMLSTLSQCEFSMGKTLLVYDMNLREMENYEKIYKEIECSIAGAHEKIAECKKQILQAKRIRKNRQEYDALAKVIQHHPDRHETLKELEALGKELEHLSHIKESVEDKLELRRKQFHVLLSTIHELQQTLENDEKLSEVEEAQEASMETDPKP | 4 | [26.7%]
TMEM126B (protein, UniProt Q8IUX1 2-230, looked up) Complex I assembly factor …: VVFGYEAGTKPRDSGVVPVGTEEAPKVFKMAASMHGQPSPSLEDAKLRRPMVIEIIEKNFDYLRKEMTQNIYQMATFGTTAGFSGIFSNFLFRRCFKVKHDALKTYASLATLPFLSTVVTDKLFVIDALYSDNISKENCVFRSSLIGIVCGVFYPSSLAFTKNGRLATKYHTVPLPPKGRVLIHWMTLCQTQMKLMAIPLVFQIMFGILNGLYHYAVFEETLEKTIHEE | 4 | [26.7%]
KIF15 (protein, UniProt Q9NS87 1-1388, looked up) Kinesin-like protein KIF15: MAPGCKTELRSVTNGQSNQPSNEGDAIKVFVRIRPPAERSGSADGEQNLCLSVLSSTSLRLHSNPEPKTFTFDHVADVDTTQESVFATVAKSIVESCMSGYNGTIFAYGQTGSGKTFTMMGPSESDNFSHNLRGVIPRSFEYLFSLIDREKEKAGAGKSFLCKCSFIEIYNEQIYDLLDSASAGLYLREHIKKGVFVVGAVEQVVTSAAEAYQVLSGGWRNRRVASTSMNRESSRSHAVFTITIESMEKSNEIVNIRTSLLNLVDLAGSERQKDTHAEGMRLKEAGNINRSLSCLGQVITALVDVGNGKQRHVCYRDSKLTFLLRDSLGGNAKTAIIANVHPGSRCFGETLSTLNFAQRAKLIKNKAVVNEDTQGNVSQLQAEVKRLKEQLAELASGQTPPESFLTRDKKKTNYMEYFQEAMLFFKKSEQEKKSLIEKVTQLEDLTLKKEKFIQSNKMIVKFREDQIIRLEKLHKESRGGFLPEEQDRLLSELRNEIQTLREQIEHHPRVAKYAMENHSLREENRRLRLLEPVKRAQEMDAQTIAKLEKAFSEISGMEKSDKNQQGFSPKAQKEPCLFANTEKLKAQLLQIQTELNNSKQEYEEFKELTRKRQLELESELQSLQKANLNLENLLEATKACKRQEVSQLNKIHAETLKIITTPTKAYQLHSRPVPKLSPEMGSFGSLYTQNSSILDNDILNEPVPPEMNEQAFEAISEELRTVQEQMSALQAKLDEEEHKNLKLQQHVDKLEHHSTQMQELFSSERIDWTKQQEELLSQLNVLEKQLQETQTKNDFLKSEVHDLRVVLHSADKELSSVKLEYSSFKTNQEKEFNKLSERHMHVQLQLDNLRLENEKLLESKACLQDSYDNLQEIMKFEIDQLSRNLQNFKKENETLKSDLNNLMELLEAEKERNNKLSLQFEEDKENSSKEILKVLEAVRQEKQKETAKCEQQMAKVQKLEESLLATEKVISSLEKSRDSDKKVVADLMNQIQELRTSVCEKTETIDTLKQELKDINCKYNSALVDREESRVLIKKQEVDILDLKETLRLRILSEDIERDMLCEDLAHATEQLNMLTEASKKHSGLLQSAQEELTKKEALIQELQHKLNQKKEEVEQKKNEYNFKMRQLEHVMDSAAEDPQSPKTPPHFQTHLAKLLETQEQEIEDGRASKTSLEHLVTKLNEDREVKNAEILRMKEQLREMENLRLESQQLIEKNWLLQGQLDDIKRQKENSDQNHPDNQQLKNEQEESIKERLAKSKIVEEMLKMKADLEEVQSALYNKEMECLRMTDEVERTQTLESKAFQEKEQLRSKLEEMYEERERTSQEMEMLRKQVECLAEENGKLVGHQNLHQKIQYVVRLKKENVRLAEETEKLRAENVFLKEKKRSES | 4 | [26.7%]
CSF3R (protein, UniProt Q99062 25-836, looked up) Granulocyte …: ECGHISVSAPIVHLGDPITASCIIKQNCSHLDPEPQILWRLGAELQPGGRQQRLSDGTQESIITLPHLNHTQAFLSCCLNWGNSLQILDQVELRAGYPPAIPHNLSCLMNLTTSSLICQWEPGPETHLPTSFTLKSFKSRGNCQTQGDSILDCVPKDGQSHCCIPRKHLLLYQNMGIWVQAENALGTSMSPQLCLDPMDVVKLEPPMLRTMDPSPEAAPPQAGCLQLCWEPWQPGLHINQKCELRHKPQRGEASWALVGPLPLEALQYELCGLLPATAYTLQIRCIRWPLPGHWSDWSPSLELRTTERAPTVRLDTWWRQRQLDPRTVQLFWKPVPLEEDSGRIQGYVVSWRPSGQAGAILPLCNTTELSCTFHLPSEAQEVALVAYNSAGTSRPTPVVFSESRGPALTRLHAMARDPHSLWVGWEPPNPWPQGYVIEWGLGPPSASNSNKTWRMEQNGRATGFLLKENIRPFQLYEIIVTPLYQDTMGPSQHVYAYSQEMAPSHAPELHLKHIGKTWAQLEWVPEPPELGKSPLTHYTIFWTNAQNQSFSAILNASSRGFVLHGLEPASLYHIHLMAASQAGATNSTVLTLMTLTPEGSELHIILGLFGLLLLLTCLCGTAWLCCSPNRKNPLWPSVPDPAHSSLGSWVPTIMEEDAFQLPGLGTPPITKLTVLEEDEKKPVPWESHNSSETCGLPTLVQTYVLQGDPRAVSTQPQSQSGTSDQVLYGQLLGSPTSPGPGHYLRCDSTQPLLAGLTPSPKSYENLWFQASPLGTLVTPAPSQEDDCVFGPLLNFPLLQGIRVHGMEALGSF | 4 | [26.7%]
STK4 (protein, UniProt Q13043 1-487, looked up) Serine/threonine-protein …: METVQLRNPPRRQLKKLDEDSLTKQPEEVFDVLEKLGEGSYGSVYKAIHKETGQIVAIKQVPVESDLQEIIKEISIMQQCDSPHVVKYYGSYFKNTDLWIVMEYCGAGSVSDIIRLRNKTLTEDEIATILQSTLKGLEYLHFMRKIHRDIKAGNILLNTEGHAKLADFGVAGQLTDTMAKRNTVIGTPFWMAPEVIQEIGYNCVADIWSLGITAIEMAEGKPPYADIHPMRAIFMIPTNPPPTFRKPELWSDNFTDFVKQCLVKSPEQRATATQLLQHPFVRSAKGVSILRDLINEAMDVKLKRQESQQREVDQDDEENSEEDEMDSGTMVRAVGDEMGTVRVASTMTDGANTMIEHDDTLPSQLGTMVINAEDEEEEGTMKRRDETMQPAKPSFLEYFEQKEKENQINSFGKSVPGPLKNSSDWKIPQDGDYEFLKSWTVEDLQKRLLALDPMMEQEIEEIRQKYQSKRQPILDAIEAKKRRQQNF | 4 | [26.7%]
PHPT1 (protein, UniProt Q9NRX4 2-125, looked up) 14 kDa phosphohistidine …: AVADLALIPDVDIDSDGVFKYVLIRVHSAPRSGAPAAESKEIVRGYKWAEYHADIYDKVSGDMQKQGCDCECLGGGRISHQSQDKKIHVYGYSMAYGPAQHAISTEKIKAKYPDYEVTWANDGY | 4 | [26.7%]
